Results deposited as PubChem BioAssay AID1259405 (NCATS, 2018).
Here is an unselected part of about 50,000 deposited reagents. Over the whole deposit, about 4,000 (8%) are marked active. 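Mouse siRNA library applied to hamster cells; one well for each siRNA.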 Entries without a mark were called inactive. The numbers tell different reagents against one gene apart.

Screen: 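Knock-downs that lift recombinant protein yield in hamster ovary cells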 (primary screen)
Cells: Chinese hamster CHO-K1 ovary cells with stable secreted eGFP expression
Knock-down reagent: single siRNA against mouse genes, 0.8 pmol siRNA per well (2 µl of 400 nM stock)
Duration: 3 days
Measured: 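Percent of the per-plate non-targeting control median for intracellular GFP per well by laser scanning cytometry and for cell viability by ATP luminescence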
Direction: GFP, % of control: higher = more GFP per well, higher productivity; viability (ATP), % of control: higher = more viable cells (more ATP)
Active means: 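Called active when intracellular GFP, relative to negative control, is at or above 120%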

After knock-down of Intu #1, the screen gave GFP, % of control 70.7; viability (ATP), % of control 71.6. For Intu #2, the values are GFP, % of control 66.8; viability (ATP), % of control 69.1. Intu #3 showed GFP, % of control 79.5; viability (ATP), % of control 111. Glycam1 #1 scored GFP, % of control 62.9; viability (ATP), % of control 70.1. For Glycam1 #2, the entry reads GFP, % of control 44.6; viability (ATP), % of control 43. Against Glycam1 #3, the entry reads GFP, % of control 90.2; viability (ATP), % of control 86.

Shisa7 #1 scored GFP, % of control 81.3; viability (ATP), % of control 55.7. Knock-down of Shisa7 #2 gave: GFP, % of control 93.4; viability (ATP), % of control 77.9. Against Shisa7 #3, the entry reads GFP, % of control 101; viability (ATP), % of control 67.8. Xdh #1 gave GFP, % of control 80.5; viability (ATP), % of control 129. After knock-down of Xdh #2 the results were GFP, % of control 109; viability (ATP), % of control 70.1. Against Xdh #3 the deposit lists GFP, % of control 61.6; viability (ATP), % of control 59.6.

Knock-down of Ripk3 #1 resulted in: GFP, % of control 50.7; viability (ATP), % of control 61.4. For Ripk3 #2 the deposit lists GFP, % of control 109; viability (ATP), % of control 83.3. Or10x1 #1 scored GFP, % of control 15.8; viability (ATP), % of control 20.6. Against Or10x1 #2 the deposit lists GFP, % of control 121 (active); viability (ATP), % of control 110. Silencing of Or10x1 #3 came out at: GFP, % of control 88.4; viability (ATP), % of control 68.6. Silencing of Zmynd12 #1 resulted in: GFP, % of control 66.7; viability (ATP), % of control 92.5.

Knock-down of Zmynd12 #2 resulted in: GFP, % of control 97; viability (ATP), % of control 69.1. Depp1 #1 showed GFP, % of control 114; viability (ATP), % of control 76.5. With knock-down of Depp1 #2 the results were GFP, % of control 100; viability (ATP), % of control 83.6. Depletion of Depp1 #3 gave: GFP, % of control 124 (active); viability (ATP), % of control 123. Against Tstd2 #1 the deposit lists GFP, % of control 42.7; viability (ATP), % of control 60.4. After knock-down of Tstd2 #2, the record shows GFP, % of control 86.5; viability (ATP), % of control 111.

Tstd2 #3 scored GFP, % of control 106; viability (ATP), % of control 133. Depletion of Or2l13b #1 came out at: GFP, % of control 54.8; viability (ATP), % of control 77.2. Or2l13b #2 showed GFP, % of control 91.7; viability (ATP), % of control 86.2. Silencing of Or2l13b #3 resulted in: GFP, % of control 114; viability (ATP), % of control 78.3.
